Results taken from PMC7819943, “Rice protein-binding microarrays: a tool to detect cis-acting elements near promoter regions in rice”.
The other results are listed elsewhere or left out.

Sequences of proteins named here, by UniProt entry; tags and fusion partners are left off.
UniProt Q0JBA9, entry or part of it: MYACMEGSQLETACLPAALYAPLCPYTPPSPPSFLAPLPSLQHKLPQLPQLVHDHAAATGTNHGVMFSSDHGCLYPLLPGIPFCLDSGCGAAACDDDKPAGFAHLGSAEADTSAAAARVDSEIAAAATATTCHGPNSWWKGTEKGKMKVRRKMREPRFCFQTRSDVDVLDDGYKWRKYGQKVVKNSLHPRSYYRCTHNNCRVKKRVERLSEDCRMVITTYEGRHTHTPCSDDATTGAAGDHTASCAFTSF

target: OsWRKY34 (Oryza sativa, UniProt Q0JBA9 1-250); assay: protein-binding microarray (RPBM); PBS, 2% BSA, 51.3 ng/ul salmon testes DNA, 50 uM zinc acetate, 200 nM TF, 25 C, 1 h; high values mean tight binding; conditions: protein: recombinant; tags: N-terminal polyhistidine and DsRed monomer fusion (pET32a); label: CyDye5-dUTP incorporated in the synthesized complementary strand; 3' TTTTT single-stranded linker to array surface; dsDNA, one strand shown
Method in brief: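 For the binding signal, per-feature fluorescence intensity was read in arbitrary units on an Axon 4000B scanner. Before scanning, a 2% BSA-blocked custom Agilent array made double-stranded with Cy5-dUTP was washed after 1 h at 25 °C with 200 nM protein and 50 µM zinc acetate. The proteins were Ni–NTA-purified transcription factors with N-terminal polyhistidine and DsRed fusions, expressed in E. coli BL21-CodonPlus.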

Sequence | binding signal
CCCATCGTCCCATTCATTCGCTCACTCATCGACCCGCCCTCGGAGTCACCTAGTGCAG | 8870 fluorescence intensity (a.u.)
GCCATGGTAACCGTCTTGCTATGTATGTGTACACCAATTTCGGAGTCACCTAGTGCAG | 10100 fluorescence intensity (a.u.)
CTTGCTTTGTTTTTTCCTTGAGCGAGACACTTTGAGATTTCGGAGTCACCTAGTGCAG | 8480 fluorescence intensity (a.u.)
CCGTTCGCCATTCGTTTCCACGCATCCCTTCCACTGACTCCGGAGTCACCTAGTGCAG | 11300 fluorescence intensity (a.u.)
ACTCAGCGTTTACATTACCATCGGTAACCGCGCGGTTACCCGGAGTCACCTAGTGCAG | 8420 fluorescence intensity (a.u.)
AACTATTCTATTATGGTTCCAGCTACAGTTTGCAGTTGTTCGGAGTCACCTAGTGCAG | 8920 fluorescence intensity (a.u.)
TACTAATTCAAAATATAATATTTTTTATTACTCTTTTCTTCGGAGTCACCTAGTGCAG | 8400 fluorescence intensity (a.u.)
CATCCCTGATCTCTCTATCTCTGTCGCTCGCGCAGCCATGCGGAGTCACCTAGTGCAG | 9500 fluorescence intensity (a.u.)
GTGTTCAGGGGTCGGGGATCGAGATCAGCGGCGTGTCGTACGGAGTCACCTAGTGCAG | 8110 fluorescence intensity (a.u.)
GATGGTCTCACGTAACTTCTTTGTTCCCTTTCTCTTCAATCGGAGTCACCTAGTGCAG | 10500 fluorescence intensity (a.u.)
TCCGTGTCTAACTTTAATGGTCCGTCTTATTTTTTTTATACGGAGTCACCTAGTGCAG | 13000 fluorescence intensity (a.u.)
ATATCAGTCCTGAATTCGTTCATCTCCTCCATATCAACCACGGAGTCACCTAGTGCAG | 8440 fluorescence intensity (a.u.)
CCATCCAACCTTTAGCCTGTGCCTGTATAATATATTTATACGGAGTCACCTAGTGCAG | 8360 fluorescence intensity (a.u.)
CTCAACTACGTATTAGTTAGCCGCCTACTACTACTTGCTACGGAGTCACCTAGTGCAG | 8390 fluorescence intensity (a.u.)
GGTGGTGGCGGTGCTCCTTGGTGTGGGGATAAACAGAGGTCGGAGTCACCTAGTGCAG | 10700 fluorescence intensity (a.u.)
GCTGGAGGGGCTGGGGTATGTTCTTTTTGTATATGACGTTCGGAGTCACCTAGTGCAG | 20300 fluorescence intensity (a.u.)
GTTTTTCCTTTTTGAGCTCAAATGCGAGCTGCCAGCCCCACGGAGTCACCTAGTGCAG | 8520 fluorescence intensity (a.u.)
CAGGTTTTAATTTTTTTTCTCGAGTTTGTCTTTTGTTGCACGGAGTCACCTAGTGCAG | 8060 fluorescence intensity (a.u.)
GATTGTAATTTCTGTATTTGTGCAGGGACCTATTAGTATTCGGAGTCACCTAGTGCAG | 8050 fluorescence intensity (a.u.)
ATCTGCTACCTCTTTGCAGTACAGTACTGTTGGCTGTTTCCGGAGTCACCTAGTGCAG | 9990 fluorescence intensity (a.u.)
GCTCCACCTTCCACCGCTTGCTGCTCATAAACGAGTTCACCGGAGTCACCTAGTGCAG | 9170 fluorescence intensity (a.u.)

Looked up one by one from above, 3 records:
Sequence | binding signal
GCCATGGTAACCGTCTTGCTATGTATGTGTACACCAATTTCGGAGTCACCTAGTGCAG | 10100 fluorescence intensity (a.u.)
GATGGTCTCACGTAACTTCTTTGTTCCCTTTCTCTTCAATCGGAGTCACCTAGTGCAG | 10500 fluorescence intensity (a.u.)
CATCCCTGATCTCTCTATCTCTGTCGCTCGCGCAGCCATGCGGAGTCACCTAGTGCAG | 9500 fluorescence intensity (a.u.)

Remaining list, next part:

Sequence | binding signal
AAAAACTGGTCAACCTCCGCCATCTCAATTTGGATCTTTGCGGAGTCACCTAGTGCAG | 10100 fluorescence intensity (a.u.)
AAAACCCTAGCGCCTTCGTCTACCTCCAGCTCGTCGCGCGCGGAGTCACCTAGTGCAG | 8870 fluorescence intensity (a.u.)
AGTTCTCTTCATATCAATGGGACATTTCCCTGTCAGTGTGCGGAGTCACCTAGTGCAG | 9340 fluorescence intensity (a.u.)
GTCACATTTAACACTAATGAATTTTACTTCCTATTATTTGCGGAGTCACCTAGTGCAG | 9160 fluorescence intensity (a.u.)
GAACGCATTACCCATTCCCCGTTTGACTTCCAATTCAAACCGGAGTCACCTAGTGCAG | 9500 fluorescence intensity (a.u.)
AGTTGACTTCCAGTTGGGCATCTGCGCTGCTAACCATCTCCGGAGTCACCTAGTGCAG | 9650 fluorescence intensity (a.u.)
CATGCATGTTGCAACCACTACGCTGCGTATCCTAGTTTTACGGAGTCACCTAGTGCAG | 8510 fluorescence intensity (a.u.)
TTCCGCCACAAGTTCCCGGCCGCCGCCGCCGCCGCCGCCACGGAGTCACCTAGTGCAG | 8160 fluorescence intensity (a.u.)
TTCTGAACCGTGTTAAAATGCTACAAAATTTTCCCTTTTTCGGAGTCACCTAGTGCAG | 8570 fluorescence intensity (a.u.)
CAAGAGCCCCAAATCCGCTATTGCATTTGTTTCATTTCATCGGAGTCACCTAGTGCAG | 10600 fluorescence intensity (a.u.)
CTAAACAGGCCCTTAGACGCACCCCTTGGGTTCAACCGACCGGAGTCACCTAGTGCAG | 8640 fluorescence intensity (a.u.)
GGGGCGTCCCGGGAGGGGAGGGAGATGGGGAGGGAGCGGACGGAGTCACCTAGTGCAG | 16800 fluorescence intensity (a.u.)
CTTTTTCACGATGATAGATAGTAGCCACTTTTTTCTGTCGCGGAGTCACCTAGTGCAG | 8310 fluorescence intensity (a.u.)
ATATACATGTGATAGCTTCGTCTCAAGATACATTGTCCTACGGAGTCACCTAGTGCAG | 9500 fluorescence intensity (a.u.)
CCCCACCATTCTATTCCGTCCACACATTCCTTTCTTACAACGGAGTCACCTAGTGCAG | 8420 fluorescence intensity (a.u.)
TGAGGTTGGTGTTGACGCTGTTGTCGACGAAGCTGGATGTCGGAGTCACCTAGTGCAG | 9590 fluorescence intensity (a.u.)
GCCTGCCTGCGACACACGCAGCAATCTAGCTCGTCACGTACGGAGTCACCTAGTGCAG | 9380 fluorescence intensity (a.u.)
CATTTGGTACAGCGTCAATTTCATCCCACTCACTTTGTTTCGGAGTCACCTAGTGCAG | 11800 fluorescence intensity (a.u.)
CCATTACAGGTGTCGCAGCACCTTGTTTCTTCAGTTGCTGCGGAGTCACCTAGTGCAG | 8020 fluorescence intensity (a.u.)
CCCTCTATAAATGGTTCCTATCACAACCACAAACACCACACGGAGTCACCTAGTGCAG | 8240 fluorescence intensity (a.u.)
GATGAAAACATTATCAATCATTCTCTTTTTCTTTCTTTTTCGGAGTCACCTAGTGCAG | 9260 fluorescence intensity (a.u.)
